Test results published in paper PMC6478927.

Protein sequences, listed by entry. Tags and fused reporters are not part of them.
UniProt Q8N5F7: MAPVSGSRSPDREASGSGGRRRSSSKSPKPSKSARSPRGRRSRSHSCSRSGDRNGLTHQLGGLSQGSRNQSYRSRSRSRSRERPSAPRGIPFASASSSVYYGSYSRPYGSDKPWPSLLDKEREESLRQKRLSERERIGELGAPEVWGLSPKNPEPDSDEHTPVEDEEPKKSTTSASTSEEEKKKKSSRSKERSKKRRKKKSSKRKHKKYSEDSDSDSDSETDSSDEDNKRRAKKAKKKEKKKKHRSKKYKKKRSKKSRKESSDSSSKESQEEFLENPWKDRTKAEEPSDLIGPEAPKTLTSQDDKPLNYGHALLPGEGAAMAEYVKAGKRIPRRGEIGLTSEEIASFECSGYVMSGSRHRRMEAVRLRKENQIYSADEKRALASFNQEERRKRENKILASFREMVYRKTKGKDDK

Molecular target: T1, DiGeorge critical region 8 (DGCR8) (human (endogenous in PANC-1)) (UniProt Q8WYQ5)
T1 sequence: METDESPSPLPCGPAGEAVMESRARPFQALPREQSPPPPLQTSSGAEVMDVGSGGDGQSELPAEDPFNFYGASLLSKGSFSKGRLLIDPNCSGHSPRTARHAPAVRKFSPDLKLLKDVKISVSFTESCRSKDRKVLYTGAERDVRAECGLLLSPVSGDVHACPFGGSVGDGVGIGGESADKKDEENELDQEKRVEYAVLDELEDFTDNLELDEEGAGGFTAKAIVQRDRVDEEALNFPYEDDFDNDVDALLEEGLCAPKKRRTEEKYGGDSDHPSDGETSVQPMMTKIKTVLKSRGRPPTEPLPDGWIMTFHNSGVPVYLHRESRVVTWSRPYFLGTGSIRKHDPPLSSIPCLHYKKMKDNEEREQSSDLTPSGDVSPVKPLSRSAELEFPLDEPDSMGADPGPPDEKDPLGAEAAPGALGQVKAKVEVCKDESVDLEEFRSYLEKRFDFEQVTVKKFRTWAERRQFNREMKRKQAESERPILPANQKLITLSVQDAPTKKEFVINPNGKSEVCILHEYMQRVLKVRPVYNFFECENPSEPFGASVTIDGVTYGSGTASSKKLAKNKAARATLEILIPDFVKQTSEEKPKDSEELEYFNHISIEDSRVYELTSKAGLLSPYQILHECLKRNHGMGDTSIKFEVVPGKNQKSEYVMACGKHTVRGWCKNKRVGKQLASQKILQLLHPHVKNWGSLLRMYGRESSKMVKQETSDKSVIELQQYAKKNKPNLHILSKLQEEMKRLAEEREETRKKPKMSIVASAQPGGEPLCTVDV
Assay: affinity purification with mass spectrometry; co-IP with anti-DGCR8 antibody, proteins identified by mass spectrometry, integrated with RNA pulldown data

- binding: binds
Substance: NF-κB associated protein (NKAP) (from UniProt Q8N5F7 1-415)

These are yes or no findings as the source states them, for the method shown. In cells and extracts the contact can be indirect. These calls come from enrichment with a bait or labelling near it, and not all partners need be listed.
